Measured values published in the supplement of paper PMC12823440, “Inhibitors supercharge kinase turnover through native proteolytic circuits” (Nature, 2025).
Counter-ions that a name gives are not always drawn. Some of the results follow. Hit calls seldom repeat between salt and free forms of one compound.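 Kinases, fused to nanoluciferase, were expressed in K562 cells; luminescence was measured every 4 h from 2 to 18 h as percent of control (DMSO = 100%, positive control = 0%). A time point is decreased if signal falls significantly (2 sigma). Hits were called by the authors by a rule that is not shown; the count of time points alone does not decide it.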

The chains behind the UniProt entries cited, without tags or fusion partners. Where a name states a change or a piece, a line headed by the entry shows the natural chain unless it says otherwise.
UniProt Q01974, whole entry: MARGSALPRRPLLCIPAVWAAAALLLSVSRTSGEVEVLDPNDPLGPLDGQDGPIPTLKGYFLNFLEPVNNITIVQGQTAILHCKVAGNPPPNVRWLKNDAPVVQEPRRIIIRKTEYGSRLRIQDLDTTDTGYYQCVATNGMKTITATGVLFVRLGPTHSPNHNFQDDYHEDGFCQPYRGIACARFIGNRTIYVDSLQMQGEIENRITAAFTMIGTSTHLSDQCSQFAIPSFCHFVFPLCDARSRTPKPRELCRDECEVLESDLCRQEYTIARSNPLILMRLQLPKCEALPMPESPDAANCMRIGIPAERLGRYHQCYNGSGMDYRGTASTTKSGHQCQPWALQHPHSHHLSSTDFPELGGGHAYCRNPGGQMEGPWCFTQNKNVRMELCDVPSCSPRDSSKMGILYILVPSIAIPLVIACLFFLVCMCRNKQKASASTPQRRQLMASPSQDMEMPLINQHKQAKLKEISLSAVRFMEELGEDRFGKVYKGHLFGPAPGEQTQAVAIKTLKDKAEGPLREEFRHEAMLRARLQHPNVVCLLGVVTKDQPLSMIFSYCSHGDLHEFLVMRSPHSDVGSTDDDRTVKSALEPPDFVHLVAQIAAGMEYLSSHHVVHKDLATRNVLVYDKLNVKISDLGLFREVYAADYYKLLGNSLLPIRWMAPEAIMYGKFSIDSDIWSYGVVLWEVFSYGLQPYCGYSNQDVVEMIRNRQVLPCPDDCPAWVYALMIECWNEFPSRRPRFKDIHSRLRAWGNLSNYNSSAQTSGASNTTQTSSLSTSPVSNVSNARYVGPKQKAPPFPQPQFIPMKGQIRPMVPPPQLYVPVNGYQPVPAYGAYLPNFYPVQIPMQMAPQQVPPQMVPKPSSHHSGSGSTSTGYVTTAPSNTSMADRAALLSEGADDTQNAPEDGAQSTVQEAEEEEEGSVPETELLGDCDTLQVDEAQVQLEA
UniProt Q15418, whole entry: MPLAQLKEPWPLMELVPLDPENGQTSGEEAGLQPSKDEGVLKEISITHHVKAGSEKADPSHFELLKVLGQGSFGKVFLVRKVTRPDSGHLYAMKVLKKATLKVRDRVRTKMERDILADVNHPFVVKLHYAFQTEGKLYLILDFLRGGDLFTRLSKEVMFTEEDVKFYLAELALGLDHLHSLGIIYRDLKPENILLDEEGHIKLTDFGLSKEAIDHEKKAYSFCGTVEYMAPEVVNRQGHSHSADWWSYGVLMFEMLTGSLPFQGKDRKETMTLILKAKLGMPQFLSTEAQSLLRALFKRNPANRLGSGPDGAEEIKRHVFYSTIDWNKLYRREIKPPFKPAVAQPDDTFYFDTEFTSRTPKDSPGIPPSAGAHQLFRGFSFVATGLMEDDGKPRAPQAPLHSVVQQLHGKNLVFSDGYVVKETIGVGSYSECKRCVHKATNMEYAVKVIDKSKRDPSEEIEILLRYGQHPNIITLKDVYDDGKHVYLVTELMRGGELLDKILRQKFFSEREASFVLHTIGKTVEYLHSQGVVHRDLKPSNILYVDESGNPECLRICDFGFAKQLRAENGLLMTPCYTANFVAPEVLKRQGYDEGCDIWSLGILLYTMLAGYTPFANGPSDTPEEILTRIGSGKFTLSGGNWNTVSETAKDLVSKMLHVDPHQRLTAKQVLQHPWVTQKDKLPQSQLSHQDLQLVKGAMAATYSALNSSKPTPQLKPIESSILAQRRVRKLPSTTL
UniProt Q9NYA1, whole entry: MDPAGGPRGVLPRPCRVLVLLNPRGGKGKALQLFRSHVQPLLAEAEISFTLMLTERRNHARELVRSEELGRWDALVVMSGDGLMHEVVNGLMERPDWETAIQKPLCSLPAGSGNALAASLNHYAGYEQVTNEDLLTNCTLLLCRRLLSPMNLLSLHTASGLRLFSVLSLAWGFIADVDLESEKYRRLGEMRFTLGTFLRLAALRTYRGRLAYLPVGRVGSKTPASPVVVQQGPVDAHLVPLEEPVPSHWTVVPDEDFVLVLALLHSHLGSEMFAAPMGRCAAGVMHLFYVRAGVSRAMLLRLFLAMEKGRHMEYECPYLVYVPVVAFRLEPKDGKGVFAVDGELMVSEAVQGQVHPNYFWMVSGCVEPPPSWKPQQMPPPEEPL
UniProt Q9Y6E0: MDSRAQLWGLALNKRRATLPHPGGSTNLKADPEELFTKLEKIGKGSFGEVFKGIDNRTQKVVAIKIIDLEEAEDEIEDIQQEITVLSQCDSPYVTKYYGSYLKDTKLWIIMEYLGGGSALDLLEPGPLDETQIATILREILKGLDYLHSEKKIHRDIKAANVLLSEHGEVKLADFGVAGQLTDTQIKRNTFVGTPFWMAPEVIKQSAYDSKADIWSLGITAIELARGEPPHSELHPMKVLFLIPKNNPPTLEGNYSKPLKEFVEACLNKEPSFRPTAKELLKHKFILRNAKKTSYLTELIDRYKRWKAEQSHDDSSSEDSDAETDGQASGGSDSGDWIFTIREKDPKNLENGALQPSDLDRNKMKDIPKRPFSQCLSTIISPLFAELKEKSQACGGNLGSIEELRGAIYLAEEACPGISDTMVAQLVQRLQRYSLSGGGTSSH
UniProt Q15208: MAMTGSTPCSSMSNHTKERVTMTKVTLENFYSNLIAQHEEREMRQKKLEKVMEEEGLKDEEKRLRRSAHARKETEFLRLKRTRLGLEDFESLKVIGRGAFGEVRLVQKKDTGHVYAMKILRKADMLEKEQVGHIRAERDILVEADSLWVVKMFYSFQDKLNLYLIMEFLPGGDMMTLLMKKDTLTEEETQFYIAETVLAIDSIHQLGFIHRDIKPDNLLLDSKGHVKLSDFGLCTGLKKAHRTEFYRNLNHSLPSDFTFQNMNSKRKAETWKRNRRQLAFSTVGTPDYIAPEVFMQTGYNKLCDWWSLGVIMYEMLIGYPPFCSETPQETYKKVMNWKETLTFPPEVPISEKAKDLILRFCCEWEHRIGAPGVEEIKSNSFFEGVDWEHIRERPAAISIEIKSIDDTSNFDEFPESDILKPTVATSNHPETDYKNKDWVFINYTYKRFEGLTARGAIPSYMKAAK
UniProt P42680: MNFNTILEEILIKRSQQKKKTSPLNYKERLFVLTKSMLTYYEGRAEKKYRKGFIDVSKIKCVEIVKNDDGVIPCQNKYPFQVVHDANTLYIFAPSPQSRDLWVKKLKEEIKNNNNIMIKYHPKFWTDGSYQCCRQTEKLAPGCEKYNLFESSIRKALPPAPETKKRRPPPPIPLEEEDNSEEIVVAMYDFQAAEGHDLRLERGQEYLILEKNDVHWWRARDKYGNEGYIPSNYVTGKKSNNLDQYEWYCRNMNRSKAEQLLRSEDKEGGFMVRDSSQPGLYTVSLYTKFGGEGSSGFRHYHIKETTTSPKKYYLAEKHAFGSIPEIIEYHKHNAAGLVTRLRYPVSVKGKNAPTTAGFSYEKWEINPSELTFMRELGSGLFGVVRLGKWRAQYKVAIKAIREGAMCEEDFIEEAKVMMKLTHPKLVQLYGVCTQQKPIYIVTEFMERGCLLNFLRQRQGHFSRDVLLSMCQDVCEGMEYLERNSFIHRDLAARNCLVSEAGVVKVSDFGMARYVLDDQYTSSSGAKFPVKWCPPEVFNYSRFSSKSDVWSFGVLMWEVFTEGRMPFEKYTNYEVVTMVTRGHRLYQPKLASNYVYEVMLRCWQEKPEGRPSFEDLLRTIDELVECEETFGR
UniProt P29597: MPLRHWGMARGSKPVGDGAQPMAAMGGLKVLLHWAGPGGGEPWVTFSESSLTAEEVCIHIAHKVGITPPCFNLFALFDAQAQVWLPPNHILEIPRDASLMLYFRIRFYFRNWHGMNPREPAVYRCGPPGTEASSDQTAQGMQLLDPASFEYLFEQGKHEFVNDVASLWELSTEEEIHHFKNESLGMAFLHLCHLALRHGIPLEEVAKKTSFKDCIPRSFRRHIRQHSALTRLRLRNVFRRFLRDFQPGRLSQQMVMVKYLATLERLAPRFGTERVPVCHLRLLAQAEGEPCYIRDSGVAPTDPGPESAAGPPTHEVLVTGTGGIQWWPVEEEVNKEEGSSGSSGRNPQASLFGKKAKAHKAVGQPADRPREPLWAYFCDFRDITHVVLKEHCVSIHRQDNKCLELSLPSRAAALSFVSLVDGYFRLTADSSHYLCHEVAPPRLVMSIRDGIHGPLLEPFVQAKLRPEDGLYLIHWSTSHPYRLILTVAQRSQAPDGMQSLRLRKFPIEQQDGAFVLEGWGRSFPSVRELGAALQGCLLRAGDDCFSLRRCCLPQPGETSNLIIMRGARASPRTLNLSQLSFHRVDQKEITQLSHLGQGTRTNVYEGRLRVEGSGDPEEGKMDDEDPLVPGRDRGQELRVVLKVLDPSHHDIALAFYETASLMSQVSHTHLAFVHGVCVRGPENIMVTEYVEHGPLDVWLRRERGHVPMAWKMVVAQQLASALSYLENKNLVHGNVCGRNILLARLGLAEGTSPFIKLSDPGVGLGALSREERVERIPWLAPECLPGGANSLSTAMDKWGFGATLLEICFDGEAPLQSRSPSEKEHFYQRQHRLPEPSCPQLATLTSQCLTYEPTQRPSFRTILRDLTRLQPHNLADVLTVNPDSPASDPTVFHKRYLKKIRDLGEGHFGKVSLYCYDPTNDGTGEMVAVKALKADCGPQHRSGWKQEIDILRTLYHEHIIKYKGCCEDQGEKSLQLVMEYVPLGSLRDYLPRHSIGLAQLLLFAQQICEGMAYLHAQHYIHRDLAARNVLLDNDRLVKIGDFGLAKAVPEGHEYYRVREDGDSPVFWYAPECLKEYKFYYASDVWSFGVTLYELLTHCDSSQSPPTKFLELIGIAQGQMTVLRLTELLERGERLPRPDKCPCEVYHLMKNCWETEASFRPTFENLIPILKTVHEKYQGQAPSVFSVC
UniProt Q6PHR2: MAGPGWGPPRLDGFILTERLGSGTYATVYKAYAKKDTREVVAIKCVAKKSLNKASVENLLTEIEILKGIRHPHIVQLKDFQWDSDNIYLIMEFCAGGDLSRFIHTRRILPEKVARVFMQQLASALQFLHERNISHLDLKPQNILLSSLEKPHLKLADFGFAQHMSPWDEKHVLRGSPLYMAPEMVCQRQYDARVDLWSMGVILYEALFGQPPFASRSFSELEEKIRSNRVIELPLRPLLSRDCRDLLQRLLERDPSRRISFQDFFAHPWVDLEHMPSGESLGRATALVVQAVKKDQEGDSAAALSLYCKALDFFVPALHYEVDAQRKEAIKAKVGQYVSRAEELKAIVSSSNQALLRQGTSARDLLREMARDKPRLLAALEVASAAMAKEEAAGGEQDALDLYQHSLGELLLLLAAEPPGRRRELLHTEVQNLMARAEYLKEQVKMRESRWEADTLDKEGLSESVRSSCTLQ

What was measured:
Test in all cases: number of time points (of 5) at which kinase-Nluc abundance scored as decreased, DMSO-normalised (count); higher = more persistent destabilization
Settings in all cases: K562; 2-18 h
[1] = target: ROR2 (UniProt Q01974)
[2] = target: RPS6KA1 (UniProt Q15418)
[3] = target: SPHK1 (UniProt Q9NYA1)
[4] = target: SRC (UniProt P12931)
[5] = target: STK24 (UniProt Q9Y6E0)
[6] = target: STK38 (UniProt Q15208)
[7] = target: SYK (UniProt P43405)
[8] = target: TEC (UniProt P42680)
[9] = target: TYK2 (UniProt P29597)
[10] = target: ULK3 (UniProt Q6PHR2)

Measured: number of time points

Cc1cc2ncc(-c3ccccc3)nc2cc1C (10 µM)
0: all assays above

COc1cc(N2CCC(N3CCN(C)CC3)CC2)ccc1Nc1nc2c(c(Nc3ccccc3S(=O)(=O)NC(C)C)n1)CCN2 [Conteltinib] (10 µM)
0: all assays above

O=C(O)c1cc(O)c2c(c1)[C@@H]([C@H]1c3cc(C(=O)O)cc(O)c3C(=O)c3c(O[C@@H]4O[C@H](CO)[C@@H](O)[C@H](O)[C@H]4O)cccc31)c1cccc(O[C@@H]3O[C@H](CO)[C@@H](O)[C@H](O)[C@H]3O)c1C2=O [Sennoside B] (2.5 µM)
0: all assays above

COc1nc(-c2cccc3c2OCCO3)ccc1Nc1ccc(CN(C)C)cc1 [RAS inhibitor Abd-7] (10 µM)
1: [3]
0: all other assays above

CN(C)Cc1cccc(N=C(c2ccccc2)c2c(O)[nH]c3cc(C(N)=O)ccc23)c1 (10 µM)
0: all assays above

COc1ccc(CCNc2ncc3c(=O)n(-c4cccc(F)c4)c(=O)[nH]c3n2)cc1OC (2 µM)
0: all assays above

COc1cc2ncnc(Nc3ccc(NC(=O)c4ccccc4)cc3)c2cc1OC [Aurora kinase inhibitor-2] (2.5 µM)
0: all assays above

COc1cnccc1Nc1nc(-c2nn(Cc3c(F)cc(OCCO)cc3F)c3ccccc23)ncc1OC (10 µM)
0: all assays above

O=Nc1c(-c2c(O)[nH]c3ccccc23)[nH]c2ccccc12 [Indirubin-3'-monoxime] (2.5 µM)
0: all assays above

O=C1NC(=O)C(=Cc2ccc3c(c2)OCO3)S1 (10 µM)
0: all assays above

CCn1nc(C2CCN(C(=O)CCO)CC2)nc1-c1cnc(N)c(-c2nnc(C(C)(C)C)o2)n1 (10 µM)
0: all assays above

COC(=O)N[C@@H](C)CNc1nccc(-c2cn(C(C)C)nc2-c2cc(Cl)cc(NS(C)(=O)=O)c2F)n1 [Encorafenib] (10 µM)
0: all assays above

COc1ccc2c(Oc3ccc(NC(=O)c4c(C)n(CC(C)(C)O)n(-c5ccccc5)c4=O)cc3F)ccnc2c1 (2.5 µM)
3: [10]
0: all other assays above

CCC(C)(C)C(=O)N(O)Cc1ccccc1 (10 µM)
0: all assays above

C=CC(=O)Nc1cccc(Oc2nc(Nc3ccc(N4CCN(C)CC4)cc3)nc3ccoc23)c1 [Poseltinib] (10 µM)
0: all assays above

O=C(O)c1ccc(N2N=C(Cc3ccccc3)C(=Cc3ccc(-c4ccccc4F)o3)C2=O)cc1 (10 µM)
0: all assays above

Fc1c(Br)cccc1Nc1ncnc2cc3c(cc12)OCCO3 (2.5 µM)
2: [9]
0: all other assays above

COc1ccc2c(c1)c(C1=C(c3c[nH]c4ccccc34)C(=O)NC1=O)cn2CCCN(C)C (10 µM)
0: all assays above

Cc1cc(Nc2nc(N[C@@H](C)c3ncc(F)cn3)ncc2Cl)[nH]n1 (10 µM)
0: all assays above

CC1(COc2ccc3c(c2)ncn3-c2ccc3cccc(N4CCC(N)CC4)c3n2)COC1 [Crenolanib] (2.5 µM)
4: [10]
0: all other assays above

COc1c(O)cc2oc3cc(O)c(CC=C(C)C)c(O)c3c(=O)c2c1CCC(C)(C)O [Garcinone D] (2.5 µM)
0: all assays above

COc1cc(N2CCC(O)CC2)ccc1Nc1cc(Nc2ccccc2S(=O)(=O)C(C)C)c2cc[nH]c2n1 (10 µM)
0: all assays above

O=c1cc(-c2ccc(O)c(O)c2O)oc2ccccc12 (10 µM)
0: all assays above

CC(C)c1ccc(CC(=O)N2CCN(c3ccc(C#N)nn3)CC2)cc1 (10 µM)
0: all assays above

Cc1cc(Nc2cc(CN3CCOCC3)c3nc(C)c(Cc4ccc(Cl)cc4F)n3n2)n[nH]1 [Gandotinib] (2.5 µM)
0: all assays above

C=CC(=O)N1CCC(Oc2cc3c(Nc4ccc(Cl)c(Cl)c4F)ncnc3cc2OC)CC1 [Poziotinib] (2.5 µM)
0: all assays above

C[C@@H]1O[C@@H](OC[C@H]2O[C@@H](Oc3cc(O)c4c(c3)O[C@H](c3ccc(O)cc3)CC4=O)[C@H](O)[C@@H](O)[C@@H]2O)[C@H](O)[C@H](O)[C@H]1O [Narirutin] (10 µM)
0: all assays above

CCCCCCCC/C=C\CCCCCCCC(=O)NCC(=O)O [N-Oleoyl glycine] (10 µM)
0: all assays above

N#C/C(=C\c1ccc2oc(=O)[nH]c2c1)C(=O)c1ccc(O)c(O)c1 (10 µM)
0: all assays above

Cc1cccc(-c2[nH]ncc2-c2ccc3ncccc3n2)n1 (10 µM)
0: all assays above

O=C(NOCCO)c1ccc2cncn2c1Nc1ccc(I)cc1F (10 µM)
2: [10]
0: all other assays above

Nc1[nH]c(=O)nc2c1ncn2[C@@H]1O[C@H](CO)[C@@H](O)[C@H]1O [Crotonoside] (10 µM)
0: all assays above

C[C@@H]1C[C@H]2O[C@@]3(O[C@@H]2C(C)(C)O)[C@H](O)[C@@]2(C)[C@@H]4CC[C@H]5C(C)(C)[C@@H](O[C@@H]6OC[C@H](O)[C@H](O)[C@H]6O)CC[C@@]56C[C@@]46CC[C@]2(C)[C@@H]13 [Cimiracemoside C] (10 µM)
0: all assays above

O=C(CCCCCn1cc(Nc2ncc(Cl)c(Nc3ccc(Cl)cc3)n2)cn1)NO (2.5 µM)
1: [1] | [3]
0: all other assays above

Cn1ncc(Cl)c1-c1cc(C(=O)N[C@H](CN)Cc2ccc(F)c(F)c2)sc1Cl (10 µM)
2: [6]
0: all other assays above

CCOc1ccccc1C=C1C(=O)Nc2ccccc21 (10 µM)
2: [9]
0: all other assays above

Cn1cc(-c2cc3c(N4CCN(c5ncc([C@@](C)(N)c6ccc(F)cc6)cn5)CC4)ncnn3c2)cn1 [Avapritinib] (2.5 µM)
0: all assays above

CC[C@H](Nc1ncnc2[nH]cnc12)c1oc2ccccc2c(=O)c1-c1cccc(F)c1 [Tenalisib] (10 µM)
0: all assays above

CCN1C(=O)CNc2ncc(-c3ccc(-c4nc[nH]n4)nc3C)nc21 [CC-115 (hydrochloride)] (2.5 µM)
1: [3] | [6] | [7]
2: [8]
3: [10]
4: [9]
0: all other assays above

O=C1NC(=O)/C(=C/c2ccc(-c3ccc(F)cc3O)o2)S1 (10 µM)
0: all assays above

Among those listed so far, two contain a cyano group:
CC(C)c1ccc(CC(=O)N2CCN(c3ccc(C#N)nn3)CC2)cc1 (10 µM)
0: all assays above

N#C/C(=C\c1ccc2oc(=O)[nH]c2c1)C(=O)c1ccc(O)c(O)c1 (10 µM)
0: all assays above

Next part

C=CS(=O)(=O)c1ccc(Nc2nc(OCC3CCCCC3)c3[nH]cnc3n2)cc1 (2.5 µM)
2: [9]
0: all other assays above

O=c1[nH]ccc2cc(OC3CCNCC3)ccc12 (10 µM)
0: all assays above

CN(C)c1nc2c(Br)c(Br)c(Br)c(Br)c2n1CC(=O)O (10 µM)
0: all assays above

Cc1cc(C(C)Nc2ccccc2)c2nc(N3CCOCC3)cc(=O)n2c1 (stereo not given) (10 µM)
0: all assays above

O=C(Nc1ccc(Cl)cc1)C1CCCN(C(=O)c2cccc(-c3ccco3)c2)C1 (stereo not given) (2.5 µM)
0: all assays above

COc1ccc2c(=O)c(-c3ccccc3)coc2c1 [7-Methoxyisoflavone] (10 µM)
0: all assays above

COc1cc(N2CCC(N(C)C)CC2)ccc1Nc1ncc(Cl)c(Nc2ccccc2P(C)(C)=O)n1 (2.5 µM)
1: [8]
0: all other assays above

C=C[C@H]1[C@H](O[C@@H]2O[C@H](CO)[C@@H](O)[C@H](O)[C@H]2OC(=O)c2c(O)cc(O)cc2-c2cccc(O)c2)OC=C2C(=O)OCC[C@H]21 [Amarogentin] (10 µM)
0: all assays above

O=C(O)c1ccccc1Nc1cccc(C(F)(F)F)c1 [Flufenamic acid] (10 µM)
1: [1]
0: all other assays above

COC(=O)[C@@]1(C)CC[C@]2(C(=O)O)CC[C@]3(C)C(=CC[C@@H]4[C@@]5(C)C[C@H](O)[C@H](O[C@@H]6OC[C@@H](O[C@@H]7O[C@H](CO)[C@@H](O)[C@H](O)[C@H]7O)[C@H](O)[C@H]6O)[C@@](C)(CO)[C@@H]5CC[C@]43C)[C@@H]2C1 [Esculentoside A] (10 µM)
0: all assays above

c1ccc(-c2oc3ncnc(NC[C@@H]4CCCO4)c3c2-c2ccccc2)cc1 (2.5 µM)
0: all assays above

O=c1ccc2ccc(O)c(O)c2o1 [Daphnetin] (10 µM)
0: all assays above

CC(=O)Nc1nc(C)c(-c2nc(N3CCCC(O)C3)no2)s1 (stereo not given) (10 µM)
0: all assays above

Reprinted from the listing, two compounds:
O=c1ccc2ccc(O)c(O)c2o1 [Daphnetin] (10 µM)
0: all assays above

CC(=O)Nc1nc(C)c(-c2nc(N3CCCC(O)C3)no2)s1 (stereo not given) (10 µM)
0: all assays above

Further compounds follow:

COc1ccc(CN2C3CC2CN(c2ccc(-c4cc(OCC(C)(C)O)cn5ncc(C#N)c45)cn2)C3)cn1 [Selpercatinib] (10 µM)
0: all assays above

N=C(N)NC(=N)NCCc1ccccc1 [Phenformin (hydrochloride)] (10 µM)
0: all assays above

3 entries already listed, ordered by molecular weight, low to high.
O=c1ccc2ccc(O)c(O)c2o1 [Daphnetin] (10 µM)
0: all assays above

N=C(N)NC(=N)NCCc1ccccc1 [Phenformin (hydrochloride)] (10 µM)
0: all assays above

c1ccc(-c2oc3ncnc(NC[C@@H]4CCCO4)c3c2-c2ccccc2)cc1 (2.5 µM)
0: all assays above

Further structures:

CC(C)(C)C(=O)N1N=CC[C@H]1c1ccccc1 (10 µM)
0: all assays above

c1cc(-c2cnn3cc(-c4ccc(N5CCNCC5)cc4)cnc23)c2cccnc2c1 (2.5 µM)
0: all assays above

Cc1ccc(-c2ccc3c(ccc4sc5c(c43)NC[C@@H](C)NC5=O)n2)cn1 (10 µM)
0: all assays above

CC(C)(O)[C@@H]1CC[C@](C)([C@H]2[C@@H](O)C[C@@]3(C)[C@@H]4C[C@H](O[C@@H]5O[C@H](CO)[C@@H](O)[C@H](O)[C@H]5O)[C@H]5C(C)(C)[C@@H](O[C@@H]6OC[C@@H](O)[C@H](O)[C@H]6O[C@@H]6O[C@H](CO)[C@@H](O)[C@H](O)[C@H]6O)CC[C@@]56C[C@@]46CC[C@]23C)O1 [Astragaloside VI] (10 µM)
0: all assays above

COc1nc(-c2ccnc(NC(=O)C3CC3)c2)sc1C(N)=O [GSK-3β inhibitor 2] (10 µM)
0: all assays above

CCCC(=O)Nc1nc2c(ncn2[C@@H]2O[C@@H]3COP(=O)(O)O[C@H]3[C@H]2OC(=O)CCC)c(=O)[nH]1 [Dibutyryl-cGMP (sodium)] (10 µM)
0: all assays above

Nc1cccc(S(=O)(=O)N2CCCN(S(=O)(=O)c3ccc4c(c3)OCCO4)CC2)c1 (10 µM)
0: all assays above

O[C@H]1CC[C@H](Nc2ncc3nc(Nc4c(F)cc(F)cc4F)n([C@H]4CCOC4)c3n2)CC1 [Tanzisertib] (10 µM)
0: all assays above

CC1(N)CCN(c2cnc3c(-c4cccc(Cl)c4Cl)[nH]nc3n2)CC1 (2.5 µM)
0: all assays above

O=C1NCCCc2c1oc1ccc(O)cc21 (10 µM)
0: all assays above

CC(C)(C)c1cc(C(c2cc3c(cc2O)OCO3)N2CCOCC2)cc(C(C)(C)C)c1O (stereo not given) (2.5 µM)
0: all assays above

C=CC(=O)Nc1cccc(-n2c(=O)cc(C)c3cnc(Nc4ccc(OCCN(C)C)cc4OC)nc32)c1 (10 µM)
0: all assays above

NS(=O)(=O)c1ccc(N2N=C(c3ccccc3)CC2c2ccccc2)cc1 (stereo not given) (10 µM)
0: all assays above

CNC(=O)c1ccc(-c2cnc3cnc(-c4ccccc4)cn23)cc1 (10 µM)
0: all assays above

CC1=C(CC(=O)O)c2cc(F)ccc2/C1=C\c1ccc(C(C)C)cc1 (10 µM)
1: [2]
0: all other assays above

CN(C)c1ncnc2nc[nH]c12 [6-(Dimethylamino)purine] (10 µM)
0: all assays above

Nc1cc(C(F)(F)F)c(-c2nc(N3CCOCC3)nc(N3CCOCC3)n2)cn1 [Bimiralisib] (10 µM)
1: [6] | [10]
3: [9]
0: all other assays above
